Laboratory results from article PMC8615792.
These are yes or no findings as the source states them, for the method shown. Binding seen in cells or lysates may run through a third protein. Some entries that bind do so weakly or less than the wild type. Sequences can lack the tags named with a protein.

Chains of the proteins cited; added tags and fusions are not shown. Lines headed by an entry give the natural chain unless they say otherwise; changes in a name come on top. A line that says so, or that is headed by a name, gives the form on record, which may keep a tag or linker.
CD44 receptor (standard form; CD44S) (P16070-12, form named): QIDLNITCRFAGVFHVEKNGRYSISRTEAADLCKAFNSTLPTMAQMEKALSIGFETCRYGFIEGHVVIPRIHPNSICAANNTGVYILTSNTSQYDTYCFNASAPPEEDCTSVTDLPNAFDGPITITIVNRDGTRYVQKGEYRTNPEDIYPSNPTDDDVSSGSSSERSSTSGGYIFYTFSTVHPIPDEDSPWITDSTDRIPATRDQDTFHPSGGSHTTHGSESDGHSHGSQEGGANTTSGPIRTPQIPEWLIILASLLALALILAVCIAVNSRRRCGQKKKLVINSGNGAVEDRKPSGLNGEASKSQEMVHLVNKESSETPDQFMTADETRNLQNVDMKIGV

Experiments:
Test in all cases: co-IP; 2 ug selectin-Fc chimera added to MDA-MB-231 cell lysate (1% NP-40, 25 mM Tris-HCl pH 7.5, 100 mM NaCl, 5% glycerol) with Dynabeads Protein G, overnight at 4 °C; beads washed, immunoblot with CD44S antibody; beads only as control; only the target purified
[1] = target: T1, recombinant mouse L-selectin Fc chimera protein (mouse) (UniProt P18337)
T1 sequence: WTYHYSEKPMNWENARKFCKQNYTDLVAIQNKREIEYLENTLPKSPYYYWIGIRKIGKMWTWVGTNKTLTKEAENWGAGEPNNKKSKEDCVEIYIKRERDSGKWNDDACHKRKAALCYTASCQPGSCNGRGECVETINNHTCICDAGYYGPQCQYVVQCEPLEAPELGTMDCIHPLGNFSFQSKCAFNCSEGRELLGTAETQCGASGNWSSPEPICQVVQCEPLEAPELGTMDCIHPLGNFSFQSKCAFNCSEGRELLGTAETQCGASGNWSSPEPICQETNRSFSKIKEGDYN

[2] = target: T2, recombinant mouse E-selectin Fc chimera protein (mouse) (UniProt Q00690)
T2 sequence: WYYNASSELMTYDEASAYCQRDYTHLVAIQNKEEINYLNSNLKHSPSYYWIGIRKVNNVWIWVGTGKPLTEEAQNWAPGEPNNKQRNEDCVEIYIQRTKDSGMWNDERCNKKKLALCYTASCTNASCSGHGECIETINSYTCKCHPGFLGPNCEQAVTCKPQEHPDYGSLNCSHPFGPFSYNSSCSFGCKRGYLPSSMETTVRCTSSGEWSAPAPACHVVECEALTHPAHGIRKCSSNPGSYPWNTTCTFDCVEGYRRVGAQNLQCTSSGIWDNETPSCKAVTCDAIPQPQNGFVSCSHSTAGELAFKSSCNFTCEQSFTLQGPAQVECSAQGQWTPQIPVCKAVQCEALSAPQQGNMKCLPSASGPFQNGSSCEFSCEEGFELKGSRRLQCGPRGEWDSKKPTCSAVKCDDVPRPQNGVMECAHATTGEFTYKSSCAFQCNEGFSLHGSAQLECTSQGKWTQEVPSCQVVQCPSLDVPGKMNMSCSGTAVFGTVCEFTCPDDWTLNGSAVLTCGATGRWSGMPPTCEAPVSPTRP

[3] = target: T3, recombinant mouse P-selectin Fc chimera protein (mouse) (UniProt Q01102)
T3 sequence: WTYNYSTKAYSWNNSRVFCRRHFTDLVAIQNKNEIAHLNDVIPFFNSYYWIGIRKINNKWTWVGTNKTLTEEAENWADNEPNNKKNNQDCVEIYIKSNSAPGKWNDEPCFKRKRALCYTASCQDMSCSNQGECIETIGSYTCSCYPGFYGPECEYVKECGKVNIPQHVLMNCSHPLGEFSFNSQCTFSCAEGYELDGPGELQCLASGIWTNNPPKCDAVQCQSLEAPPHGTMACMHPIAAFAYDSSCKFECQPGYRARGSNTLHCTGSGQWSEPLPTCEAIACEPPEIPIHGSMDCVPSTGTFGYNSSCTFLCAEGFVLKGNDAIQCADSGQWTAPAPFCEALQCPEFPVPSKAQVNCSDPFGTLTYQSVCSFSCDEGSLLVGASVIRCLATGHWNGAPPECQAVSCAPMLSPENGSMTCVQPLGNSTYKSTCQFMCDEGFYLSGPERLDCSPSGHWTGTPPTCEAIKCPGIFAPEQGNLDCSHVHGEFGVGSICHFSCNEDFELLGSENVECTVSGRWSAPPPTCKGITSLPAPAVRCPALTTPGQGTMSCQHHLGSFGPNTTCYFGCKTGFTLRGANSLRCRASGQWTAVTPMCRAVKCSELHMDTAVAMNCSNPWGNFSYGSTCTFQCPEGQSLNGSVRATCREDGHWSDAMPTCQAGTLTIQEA

binding [1]: binds
binding [2]: binds
binding [3]: binds
Substance: CD44 receptor (standard form; CD44S) (from UniProt P16070-12 21-361)
